{"sequences": {"note": "Sequences of proteins named here, by UniProt entry; tags and fusion partners are left off. A change or cut given only in a name is not applied to a line headed by its entry.", "UniProt Q9H1Y0": "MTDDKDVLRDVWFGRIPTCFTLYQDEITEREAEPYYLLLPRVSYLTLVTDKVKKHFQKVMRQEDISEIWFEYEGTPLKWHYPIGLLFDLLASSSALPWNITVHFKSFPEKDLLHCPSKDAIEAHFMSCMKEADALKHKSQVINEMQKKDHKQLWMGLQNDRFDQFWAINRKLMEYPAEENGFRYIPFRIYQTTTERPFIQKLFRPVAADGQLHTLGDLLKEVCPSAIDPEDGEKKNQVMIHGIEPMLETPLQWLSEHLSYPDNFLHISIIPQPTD", "UniProt O94817": "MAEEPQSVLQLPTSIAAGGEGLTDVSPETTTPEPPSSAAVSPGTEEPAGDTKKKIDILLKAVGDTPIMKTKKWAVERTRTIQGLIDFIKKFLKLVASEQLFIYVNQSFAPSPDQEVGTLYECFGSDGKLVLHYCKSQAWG"}, "source": "paper PMC5943352", "key": {"[1]": {"molecular_target": "T1, FLAG-RAB37 (wild type) (human (from the RefSeq id NM_175738.4)) (UniProt Q96AX2)", "T1 sequence": "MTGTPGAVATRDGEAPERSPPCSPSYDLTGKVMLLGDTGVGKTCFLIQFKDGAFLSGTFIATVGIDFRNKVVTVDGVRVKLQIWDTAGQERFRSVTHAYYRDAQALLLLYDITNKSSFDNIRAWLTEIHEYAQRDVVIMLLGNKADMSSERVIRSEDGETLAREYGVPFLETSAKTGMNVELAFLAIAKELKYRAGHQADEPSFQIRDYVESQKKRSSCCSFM", "assay": "co-IP; 293T co-transfected with MYC-ATG5 and FLAG-RAB37-WT, -T43N, -Q89L or control plasmid; starvation; IP anti-FLAG, blot anti-MYC and anti-FLAG"}, "[2]": {"molecular_target": "T2, FLAG-RAB37-Q89L (human (from the RefSeq id NM_175738.4)) (UniProt Q96AX2)", "T2 sequence": "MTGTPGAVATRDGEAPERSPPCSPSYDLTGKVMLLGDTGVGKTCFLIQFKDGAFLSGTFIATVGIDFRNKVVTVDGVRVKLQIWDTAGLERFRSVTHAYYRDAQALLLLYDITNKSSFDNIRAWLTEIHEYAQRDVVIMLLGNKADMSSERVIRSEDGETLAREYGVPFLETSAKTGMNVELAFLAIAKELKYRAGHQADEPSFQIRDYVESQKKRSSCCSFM", "assay": "co-IP; 293T co-transfected with MYC-ATG5 and FLAG-RAB37-WT, -T43N, -Q89L or control plasmid; starvation; IP anti-FLAG, blot anti-MYC and anti-FLAG"}, "[3]": {"molecular_target": "T3, FLAG-RAB37-T43N (human (from the RefSeq id NM_175738.4)) (UniProt Q96AX2)", "T3 sequence": "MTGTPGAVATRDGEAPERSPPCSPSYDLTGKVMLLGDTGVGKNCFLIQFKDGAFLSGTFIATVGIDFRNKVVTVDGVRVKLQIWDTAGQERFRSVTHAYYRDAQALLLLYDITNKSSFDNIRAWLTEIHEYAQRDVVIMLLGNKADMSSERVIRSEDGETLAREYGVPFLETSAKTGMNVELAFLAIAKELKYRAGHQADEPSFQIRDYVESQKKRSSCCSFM", "assay": "co-IP; 293T co-transfected with MYC-ATG5 and FLAG-RAB37-WT, -T43N, -Q89L or control plasmid; starvation; IP anti-FLAG, blot anti-MYC and anti-FLAG"}, "[4]": {"molecular_target": "ATG5 (endogenous, 293T cells) (human (endogenous in 293T)) (UniProt Q9H1Y0)", "assay": "co-IP; endogenous proteins in 293T lysate; immunoprecipitated with anti-ATG5, anti-RAB37 antibody or negative serum, blotted with anti-RAB37 or anti-ATG5; cells starved in EBSS 1 h; NETN buffer (50 mM Tris-HCl pH 8.0, 0.15 M NaCl, 1 mM EDTA, 0.5% NP-40), overnight 4 °C"}, "[5]": {"molecular_target": "ATG5-12 (endogenous ATG5-ATG12 conjugate, 293T cells) (human (endogenous in 293T)) (UniProt Q9H1Y0+O94817)", "assay": "co-IP; endogenous proteins in 293T lysate; immunoprecipitated with anti-ATG5, anti-RAB37 antibody or negative serum, blotted with anti-RAB37 or anti-ATG5; cells starved in EBSS 1 h; NETN buffer (50 mM Tris-HCl pH 8.0, 0.15 M NaCl, 1 mM EDTA, 0.5% NP-40), overnight 4 °C"}, "[6]": {"molecular_target": "ATG5 (endogenous, HeLa cells) (human (endogenous in HeLa)) (UniProt Q9H1Y0)", "assay": "co-IP; endogenous proteins in lysates of control and RAB37-knockdown HeLa cells starved 1 h; IP anti-ATG5 or negative serum, blot anti-RAB37, anti-ATG16L1 or anti-ATG5"}, "[7]": {"molecular_target": "MYC-GFP-ATG5 (wild type) (human) (UniProt Q9H1Y0)", "assay": "co-IP; 293T co-transfected with FLAG-RAB37 and MYC-GFP-ATG5 wild type or deletion mutants; reciprocal: IP anti-GFP, blot anti-FLAG, and IP anti-FLAG, blot anti-GFP; NETN buffer"}, "BD-ATG5 (human)": {"molecular_target": "BD-ATG5 (human) (UniProt Q9H1Y0)", "assay": "two-hybrid; Y2HGold yeast; AD-RAB37 (pGADT7) with BD-ATG5 constructs (pGBKT7); growth on SD/-Leu/-Trp/-His at 30 °C"}, "GST-ATG5 (human)": {"molecular_target": "GST-ATG5 (human) (UniProt Q9H1Y0)", "assay": "pull-down; GST fusions on glutathione-agarose beads incubated overnight at 4 °C with His-RAB37 E. coli supernatant pre-incubated with 50 uM GTPgammaS; washed with NETN buffer; blot anti-RAB37; only the target purified"}}, "note": "These are yes or no findings as the source states them, for the method shown. For part of these data: Binding seen in cells or lysates may run through a third protein. Some results given as binding are weak or reduced against the parent protein; the word gives no strength. For part of these data: Tags and fused reporters may be left off the sequences shown.", "data": [{"molecule": "MYC-ATG5 (from UniProt Q9H1Y0-1 1-275)", "values": [{"measurement": "binding", "setting": "[1]", "result": "binds"}, {"measurement": "binding", "setting": "[2]", "result": "binds"}, {"measurement": "binding", "setting": "[3]", "result": "binds weakly"}]}, {"molecule": "RAB37 (endogenous, 293T cells) (protein, UniProt Q96AX2 1-223) MTGTPGAVATRDGEAPERSPPCSPSYDLTGKVMLLGDTGVGKTCFLIQFKDGAFLSGTFIATVGIDFRNKVVTVDGVRVKLQIWDTAGQERFRSVTHAYYRDAQALLLLYDITNKSSFDNIRAWLTEIHEYAQRDVVIMLLGNKADMSSERVIRSEDGETLAREYGVPFLETSAKTGMNVELAFLAIAKELKYRAGHQADEPSFQIRDYVESQKKRSSCCSFM", "values": [{"measurement": "binding", "setting": "[4]", "result": "binds"}, {"measurement": "binding", "setting": "[5]", "result": "binds"}]}, {"molecule": "RAB37 (endogenous, HeLa cells) (protein, UniProt Q96AX2 1-223) MTGTPGAVATRDGEAPERSPPCSPSYDLTGKVMLLGDTGVGKTCFLIQFKDGAFLSGTFIATVGIDFRNKVVTVDGVRVKLQIWDTAGQERFRSVTHAYYRDAQALLLLYDITNKSSFDNIRAWLTEIHEYAQRDVVIMLLGNKADMSSERVIRSEDGETLAREYGVPFLETSAKTGMNVELAFLAIAKELKYRAGHQADEPSFQIRDYVESQKKRSSCCSFM", "values": [{"measurement": "binding", "setting": "[6]", "result": "binds"}]}, {"molecule": "FLAG-RAB37 (wild type) (protein, UniProt Q96AX2-1 1-223) MTGTPGAVATRDGEAPERSPPCSPSYDLTGKVMLLGDTGVGKTCFLIQFKDGAFLSGTFIATVGIDFRNKVVTVDGVRVKLQIWDTAGQERFRSVTHAYYRDAQALLLLYDITNKSSFDNIRAWLTEIHEYAQRDVVIMLLGNKADMSSERVIRSEDGETLAREYGVPFLETSAKTGMNVELAFLAIAKELKYRAGHQADEPSFQIRDYVESQKKRSSCCSFM", "values": [{"measurement": "binding", "setting": "[7]", "result": "binds"}]}, {"molecule": "AD-RAB37 (protein, UniProt Q96AX2-1 1-223) MTGTPGAVATRDGEAPERSPPCSPSYDLTGKVMLLGDTGVGKTCFLIQFKDGAFLSGTFIATVGIDFRNKVVTVDGVRVKLQIWDTAGQERFRSVTHAYYRDAQALLLLYDITNKSSFDNIRAWLTEIHEYAQRDVVIMLLGNKADMSSERVIRSEDGETLAREYGVPFLETSAKTGMNVELAFLAIAKELKYRAGHQADEPSFQIRDYVESQKKRSSCCSFM", "values": [{"measurement": "binding", "setting": "BD-ATG5 (human)", "result": "binds"}]}, {"molecule": "His-RAB37 (protein, UniProt Q96AX2-1 1-223) MTGTPGAVATRDGEAPERSPPCSPSYDLTGKVMLLGDTGVGKTCFLIQFKDGAFLSGTFIATVGIDFRNKVVTVDGVRVKLQIWDTAGQERFRSVTHAYYRDAQALLLLYDITNKSSFDNIRAWLTEIHEYAQRDVVIMLLGNKADMSSERVIRSEDGETLAREYGVPFLETSAKTGMNVELAFLAIAKELKYRAGHQADEPSFQIRDYVESQKKRSSCCSFM", "values": [{"measurement": "binding", "setting": "GST-ATG5 (human)", "result": "binds"}]}]}
